These are yes or no findings as the source states them, for the method shown. Some binding calls cover weakened binding; strength is not graded here.
Experiments:
[1] = molecular target: PPP1CA, two-hybrid bait pAS2-PPP1CA (UniProt P62136); assay: two-hybrid; sequential co-transformation of yeast AH109 with bait (pAS2) and prey (pACT2) plasmids; selective media with X-alpha-Gal, 30 C, MEL1 expression (blue colour)
[2] = molecular target: PPP1CC2, two-hybrid bait pAS2-PPP1CC2 (human) (UniProt P36873); assay: as above
[3] = substrate: PPP1CC1, two-hybrid bait pAS2-PPP1CC1 (human) (UniProt P36873); assay: two-hybrid; screen of a human testis cDNA library with PPP1CC1 as bait; 120 positive clones recovered
[4] = substrate: PPP1CC1, two-hybrid bait pAS2-PPP1CC1 (human) (UniProt P36873); assay: two-hybrid; sequential co-transformation of yeast AH109 with bait (pAS2) and prey (pACT2) plasmids; selective media with X-alpha-Gal, 30 C, MEL1 expression (blue colour)

The chains behind the UniProt entries cited, without tags or fusion partners. Where a name states a change or a piece, a line headed by the entry shows the natural chain unless it says otherwise.
UniProt P62136: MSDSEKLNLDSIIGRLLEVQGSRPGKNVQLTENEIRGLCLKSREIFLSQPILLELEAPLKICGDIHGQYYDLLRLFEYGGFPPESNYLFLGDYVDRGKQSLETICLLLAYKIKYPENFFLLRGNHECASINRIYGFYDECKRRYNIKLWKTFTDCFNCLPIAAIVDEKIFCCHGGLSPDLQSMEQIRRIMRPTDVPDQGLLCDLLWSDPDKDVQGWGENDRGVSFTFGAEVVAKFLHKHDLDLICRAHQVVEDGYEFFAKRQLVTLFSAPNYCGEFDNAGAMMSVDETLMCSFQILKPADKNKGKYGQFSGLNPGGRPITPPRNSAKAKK
UniProt P36873: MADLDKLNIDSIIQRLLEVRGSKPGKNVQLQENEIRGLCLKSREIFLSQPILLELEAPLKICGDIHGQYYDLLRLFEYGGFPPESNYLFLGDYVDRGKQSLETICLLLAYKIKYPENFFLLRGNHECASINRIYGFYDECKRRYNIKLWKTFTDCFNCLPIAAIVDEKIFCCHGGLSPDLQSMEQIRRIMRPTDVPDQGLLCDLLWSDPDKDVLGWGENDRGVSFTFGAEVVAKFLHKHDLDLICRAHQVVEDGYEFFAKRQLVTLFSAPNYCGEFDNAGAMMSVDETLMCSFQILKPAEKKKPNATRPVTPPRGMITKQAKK

Measured: binding

B1: PPP1R2P3 (PPP1R2 pseudogene 3), two-hybrid prey pACT2-PPP1R2P3 (protein, UniProt Q6NXS1 1-205)
chain: MAASTASHRPIKGILKNKTSTTSSMVASAEQPRRSVDEELSKKSQKWDEINILATYHPADKGYGLMKIDEPSPPYHSMMGDDEDACRDTETTEAMAPDILAKKLAAAEGLEPKYRIQEQESSGEEDSDLSPEEREKKRQFEMRRKLHYNEGLNIKLARQLISKDLHDDDEDEEMLETADGESMNTEESNQGSTPSDQQQNKLRSS
binds: all assays above

Source: publication PMC3606321
